Drawing on paper doi:10.1101/2024.10.03.616587, this text covers binding for one molecule.

The target of this test is KVβ1.2 subunit (UniProt Q14722). In words: co-IP.

Results are given in words; binding and its absence hold for the method and conditions named. In cells and extracts the contact can be indirect. Binding calls can cover weak binding; strength is not graded here. Where a sequence is shown, tags or fusion partners need not be part of it.

B1: Lgi4, FLAG-tagged (protein, UniProt Q8N135-1 20-537)
chain: WRPPKGKCPLRCSCSKDSALCEGSPDLPVSFSPTLLSLSLVRTGVTQLKAGSFLRIPSLHLLLFTSNSFSVIEDDAFAGLSHLQYLFIEDNEIGSISKNALRGLRSLTHLSLANNHLETLPRFLFRGLDTLTHVDLRGNPFQCDCRVLWLLQWMPTVNASVGTGACAGPASLSHMQLHHLDPKTFKCRAIELSWFQTVGESALSVEPFSYQGEPHIVLAQPFAGRCLILSWDYSLQRFRPEEELPAASVVSCKPLVLGPSLFVLAARLWGGSQLWARPSPGLRLAPTQTLAPRRLLRPNDAELLWLEGQPCFVVADASKAGSTTLLCRDGPGFYPHQSLHAWHRDTDAEALELDGRPHLLLASASQRPVLFHWTGGRFERRTDIPEAEDVYATRHFQAGGDVFLCLTRYIGDSMVMRWDGSMFRLLQQLPSRGAHVFQPLLIARDQLAILGSDFAFSQVLRLEPDKGLLEPLQELGPPALVAPRAFAHITMAGRRFLFAACFKGPTQIYQHHEIDLSA
In the case of B1, the binding entry is “binds”.
